These are yes or no findings as the source states them, for the method shown. Some binding calls cover weakened binding; strength is not graded here.
Key:
[1] = biological target: p110γ, class IB PI3K catalytic subunit, wild type (human) (UniProt P48736); test: HDX-MS; free p110γ compared with the p110γ/p101 complex (WT and R1021C); 13 pmol protein, D2O buffer 20 mM HEPES pH 7.5, 100 mM NaCl; 3, 30, 300, 3000 s at 20°C; both purified
p110γ R1021C (human) [2] = biological target: p110γ R1021C (human) (UniProt P48736); test: as above
[3] = biological target: p110γ, class IB PI3K catalytic subunit, wild type (human) (UniProt P48736); test: SEC; p110γ and p101 co-expressed in Sf9 and co-purified by nickel affinity, streptavidin affinity and TEV cleavage; Superdex 200 10/300 GL Increase in 20 mM Tris pH 8.5, 100 mM NaCl, 50 mM ammonium sulfate, 0.5 mM TCEP; SDS-PAGE of the final complexes; both purified
p110γ R1021P (human) = p110γ R1021P (human) (UniProt P48736); test: as above
p110γ R1021C (human) [4] = biological target: p110γ R1021C (human) (UniProt P48736); test: as above

Sequences of proteins named here, by UniProt entry; tags and fusion partners are left off. A change or cut given only in a name is not applied to a line headed by its entry.
UniProt P48736: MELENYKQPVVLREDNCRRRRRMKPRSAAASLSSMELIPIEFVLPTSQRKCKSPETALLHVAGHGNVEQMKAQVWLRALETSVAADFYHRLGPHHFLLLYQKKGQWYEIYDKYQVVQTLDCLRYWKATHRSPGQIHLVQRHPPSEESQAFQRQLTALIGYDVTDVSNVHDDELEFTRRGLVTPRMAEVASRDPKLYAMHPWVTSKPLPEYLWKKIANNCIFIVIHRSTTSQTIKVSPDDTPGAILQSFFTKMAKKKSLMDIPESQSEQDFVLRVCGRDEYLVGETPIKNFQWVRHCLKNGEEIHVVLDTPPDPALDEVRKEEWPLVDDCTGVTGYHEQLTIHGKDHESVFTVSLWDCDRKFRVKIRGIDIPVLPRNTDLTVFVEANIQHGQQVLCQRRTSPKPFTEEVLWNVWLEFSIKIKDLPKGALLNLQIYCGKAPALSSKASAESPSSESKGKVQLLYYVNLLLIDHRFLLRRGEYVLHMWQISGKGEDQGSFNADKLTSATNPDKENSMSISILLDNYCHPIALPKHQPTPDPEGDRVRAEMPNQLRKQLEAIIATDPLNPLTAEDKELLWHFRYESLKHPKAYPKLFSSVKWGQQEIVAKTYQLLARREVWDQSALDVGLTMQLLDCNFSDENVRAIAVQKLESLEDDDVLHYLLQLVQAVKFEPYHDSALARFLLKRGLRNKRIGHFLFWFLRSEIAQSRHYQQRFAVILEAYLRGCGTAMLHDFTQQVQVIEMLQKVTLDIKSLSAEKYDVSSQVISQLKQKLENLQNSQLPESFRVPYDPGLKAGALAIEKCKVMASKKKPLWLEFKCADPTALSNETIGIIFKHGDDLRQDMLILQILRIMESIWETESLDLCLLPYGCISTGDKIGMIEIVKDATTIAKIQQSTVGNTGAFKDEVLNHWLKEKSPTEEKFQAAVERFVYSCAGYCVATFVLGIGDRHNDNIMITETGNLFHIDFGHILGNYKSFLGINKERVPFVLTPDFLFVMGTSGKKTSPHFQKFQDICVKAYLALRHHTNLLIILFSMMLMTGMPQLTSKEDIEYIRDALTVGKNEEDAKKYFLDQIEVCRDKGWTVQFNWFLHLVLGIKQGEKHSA

Measured: binding

B1: p101 regulatory subunit of PI3Kγ (protein, UniProt O02696 1-877)
chain: MQPGATTCTEDRIQHALERCLHGLSLSRRSTSWSAGLCLNCWSLQELVSRDPGHFLILLEQILQKTREVQEKGTYDLLAPLALLFYSTVLCTPHFPPDSDLLLKAARTYHRFLTWPVPYCSICQELLTFIDAELKAPGISYQRLVRAEQGLSTRSHRSSTVTVLLLNPVEVQAEFLDVADKLSTPGPSPHSAYITLLLHAFQATFGAHCDLSGLHRRLQSKTLAELEAIFTETAEAQELASGIGDAAEARQWLRTKLQAVGEKAGFPGVLDTAKPGKLRTIPIPVARCYTYSWNQDSFDILQEILLKEQELLQPEILDDEEDEDEEDEEEDLDADGHCAERDSVLSTGSAASHASTLSLASSQASGPTLSRQLLTSFVSGLSDGVDSGYMEDIEESAYERPRRPGGHERRGHRRPGQKFNRIYKLFKSTSQMVLRRDSRSLEGSPDSGPPLRRAGSLCSPLDSPTLPPSRAQGSRSLPQPKLSPQLPGWLLAPASRHQRRRPFLSGDEDPKASTLRVVVFGSDRISGKVVRAYSNLRRLENNRPLLTRFFKLQFFYVPVKRSRGTGTPTSPAPRSQTPPLPTDAPRHPGPAELGAAPWEESTNDISHYLGMLDPWYERNVLGLMHLPPEVLCQSLKAEPRPLEGSPAQLPILADMLLYYCRFAARPVLLQVYQTELTFITGEKTTEIFIHSLELGHSAATRAIKASGPGSKRLGIDGDREAVPLTLQIIYSKGAISGRSRWSNMEKLCTSVNLSKACRQQEELDSSTEALTLNLTEVVKRQTPKSKKGFNQISTSQIKVDKVQIIGSNSCPFAVCLDQDERKILQSVIRCEVSPCYKPEKSSLCPPPQRPSYPPAPATPDLCSLLCLPIMTFSGALP
binds: all assays above
